Data as given in the supplement of paper PMC8426693.
Some of the results follow.

Tests used:
Assay in all cases: NMR binding call after quantification (hit when 2 of 3 NMR criteria are met) (binary (1 = binding, 0 = not binding)); higher = binding
Conditions in all cases: RNA concentration 10 µM; fragment concentration 200 µM; 293 K
SARS-CoV-2 5_SL7 RNA = tested on: SARS-CoV-2 5_SL7 RNA
SARS-CoV-2 5_SL8 RNA = tested on: SARS-CoV-2 5_SL8 RNA
[1] = tested on: SARS-CoV-2 attenuator hairpin (att HP) RNA
[2] = tested on: SARS-CoV-2 frameshift pseudoknot (PK) RNA

Measured: NMR binding call

COC(=O)CNC(=O)C1CCCCC1
0: all assays above

COC(=O)c1ccncc1
0: all assays above

CC(C)CC(=O)NCc1ccc2c(c1)OCO2
0: all assays above

O=C(Nc1cccc(F)c1)c1cnccn1
0: all assays above

COC(=O)c1sccc1NC(=O)C1CC1
0: all assays above

COCC(=O)Nc1nc(-c2ccccc2)cs1
0: all assays above

COc1cc(C(=O)O)cc(OC)c1OC
0: all assays above

CCNC(=O)c1ccc(N(C)C)c(F)c1
0: all assays above

Cc1cccc(NC(=O)C2CCCN2)n1 (centres undefined)
0: all assays above

COc1ccc(C)cc1NC(=O)Nn1cnnc1
0: all assays above

CN1CCCC1CO (centres undefined)
0: all assays above

c1csc(-c2ncc[nH]2)c1
0: all assays above

Cc1cc(NC(=O)CCC2CCCCC2)no1
0: all assays above

CC(O)CNC1CCCCC1 (centres undefined)
0: all assays above

CNC1CCCN(c2cccnn2)C1 (centres undefined)
0: all assays above

CCC1CCC(NCC2CCCO2)CC1 (centres undefined)
0: all assays above

COc1ccc(C(=O)C2CCNCC2)cc1
0: all assays above

CS(=O)(=O)N1CCC(C(=O)NC2CC2)CC1
0: all assays above

Pulled by structure from above (three):
CS(=O)(=O)N1CCC(C(=O)NC2CC2)CC1
0: all assays above

COc1ccc(C(=O)C2CCNCC2)cc1
0: all assays above

CNC1CCCN(c2cccnn2)C1 (centres undefined)
0: all assays above

(list continues)

CN1CCC(Oc2cccc(F)c2)C1=O (centres undefined)
0: all assays above

Cc1cc(C(=O)NCc2cccs2)no1
0: all assays above

COc1ccc(CNC(=O)CC#N)cc1
0: all assays above

Fc1ccc(CNCC2CCCO2)cc1 (centres undefined)
0: all assays above

CS(=O)(=O)NC1CCCC1
0: all assays above

CS(=O)(=O)N1CCC(O)CC1
0: all assays above

c1csc(-c2nc(N3CCCCC3)no2)c1
0: all assays above

CC(=O)Nc1cc(C(=O)O)ccc1F
0: all assays above

CCn1nccc1CNC.Cl.Cl
0: all assays above

OC1CCN(Cc2ccc(Cl)cc2)C1 (centres undefined)
0: all assays above

O=C(CN1CCCC1)Nc1cccc(Cl)c1
0: all assays above

CCOc1ccc(C(N)=O)cn1
0: all assays above

Cc1nnc(NC(=O)N2CCOCC2)s1
0: all assays above

CC1COCCN1CCN (centres undefined)
0: all assays above

CCc1nnc(NC(=O)C(F)(F)F)s1
0: all assays above

CC(C(N)=O)N1CCN(S(C)(=O)=O)CC1 (centres undefined)
0: all assays above

CC(O)C(=O)NCc1ccccn1 (centres undefined)
0: all assays above

Fc1ccccc1NCc1cc[nH]n1
0: all assays above

Cc1nn(C)c(C)c1NC(=O)CC#N
0: all assays above

CC(=O)NCc1cncs1
0: all assays above

CC1CCCCN1C(=O)c1cnccn1 (centres undefined)
0: all assays above

CC1(C)CCCN1CCN
0: all assays above

CNC(=O)c1ccc(S(N)(=O)=O)cc1
0: all assays above

CC1CCC(NC2CCC(O)CC2)CC1 (centres undefined)
0: all assays above

Cl.NC(=O)c1ccc2c(c1)CCN2
0: all assays above

O=C(COc1ccccc1)NC1CCCCC1
0: all assays above

CSc1nsc(NC(C)=O)n1
0: all assays above

CC(=O)Nc1ccc(NC(=O)C2CC2(C)C)cc1 (centres undefined)
0: all assays above
